Experimental data: PubChem BioAssay AID504786 (Drosophila RNAi Screening Center, 2011)
Screen: 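Positive regulators of HIF-driven reporter output in Drosophila cells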 (primary screen). Cells: Drosophila S2 cells with a stable HIF luciferase reporter. Reagents: long dsRNA against Drosophila genes, about 0.2 µg dsRNA per well of a 384-well plate. Time to read-out: three days of knock-down, then 20 h of DFO before reading. Conditions: desferrioxamine (DFO) at 100 µM, an iron chelator that mimics hypoxia, for 20 h. Detection: 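HIF reporter luminescence in cells given 100 µM DFO for 20 h, using the mouse ldh-a hypoxia-response element, scored as per-plate z-scores; higher means greater loss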. Scale: z-score: higher = stronger loss of HIF reporter signal.
In all, the deposit lists about 21,000 reagents; shown is an unselected part of those that have a named target and a result. 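Primary screen; positive scores mean lost reporter signal, so the sign may be inverted from the usual convention.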 Names joined by + are all predicted targets of the reagent. Further read-outs or replicates are left out here.

Gene | dsRNA | z-score, replicate 1 | z-score, replicate 2 | z-score, replicate 3
Pgant35A (Polypeptide N-acetylgalactosaminyltransferase 35A) | DRSC03557 | -0.2 | -0.6 | -0.3
Gbp1 (Growth-blocking peptide 1) | DRSC06592 | -0.1 | -0.2 | –
Gal (beta galactosidase) | DRSC03134 | -0.1 | -0.2 | –
CG3328 | DRSC04357 | -0.2 | -0.5 | –
CG17770 + Acam | DRSC14110 | -0.3 | -0.8 | –
CG17770 + Acam | DRSC15264 | -0.3 | -0.4 | –
CG10237 | DRSC02029 | -0.2 | -0.1 | –
Cyp313a4 (Cytochrome P450 313a4) | DRSC16627 | -0.3 | -0.7 | –
CG14120 | DRSC10124 | -0.2 | 0 | –
CG13230 | DRSC06350 | 0.1 | -0.1 | –
Gr94a (Gustatory receptor 94a) | DRSC13597 | 0.4 | 0.3 | –
CG14331 | DRSC14810 | -0.2 | 1.3 | –
Blm + CG14721 | DRSC14943 | -0.1 | -0.1 | –
CG3701 (retired record) | DRSC04408 | -0.4 | 0 | –
CG3701 (retired record) | DRSC04409 | -0.1 | 0.1 | –
hep (hemipterous) | DRSC19839 | -0.3 | -0.5 | –
hep (hemipterous) | DRSC20337 | -0.3 | -1 | –
CG5151 | DRSC10487 | 3.4 | 0.2 | –
CG4575 (retired record) | DRSC18372 | -0.1 | -0.3 | –
CG6225 | DRSC15996 | -0.2 | -0.6 | –
CG11211 | DRSC04851 | -0.4 | -0.3 | –
CG32112 | DRSC09815 | -0.3 | -0.2 | –
mod (modulo) | DRSC16999 | -0.3 | -0.4 | –
Rbp6 (RNA-binding protein 6) | DRSC09462 | -0.6 | -0.4 | –
Rbp6 (RNA-binding protein 6) | DRSC09464 | 0.1 | 0 | –
Rbp6 (RNA-binding protein 6) | DRSC10072 | -0.2 | 0.2 | –
Rbp6 (RNA-binding protein 6) | DRSC10073 | -0.3 | -0.5 | –
Rbp6 (RNA-binding protein 6) | DRSC10662 | -0.3 | -0.5 | –
Exd2 (Exonuclease 3'-5' domain-containing 2) | DRSC16105 | -0.4 | -0.4 | –
Pngl (PNGase-like) | DRSC04914 | -0.4 | -0.1 | –
CG34135 | DRSC12702 | 0 | -0.1 | –
CG31793 | DRSC02605 | -0.4 | -0.3 | –
GNBP-like3 (GNBP-like 3) | DRSC06385 | -0.2 | 0.2 | –
glob1 (globin 1) | DRSC16959 | -0.2 | 0.3 | –
Dscam4 (Down syndrome cell adhesion molecule 4) | DRSC08911 | 0.5 | 0.6 | –
Dscam4 (Down syndrome cell adhesion molecule 4) | DRSC08913 | -0.3 | 0.2 | –
Dscam4 (Down syndrome cell adhesion molecule 4) | DRSC10031 | 0 | 0.5 | –
Dscam4 (Down syndrome cell adhesion molecule 4) | DRSC10329 | 1.8 | 2.1 | –
Dscam4 (Down syndrome cell adhesion molecule 4) | DRSC10765 | -0.3 | 0.1 | –
UbcE2M (NEDD8-conjugating enzyme UbcE2M) | DRSC10828 | -0.5 | -0.6 | –
CG6836 | DRSC10722 | -0.3 | -0.2 | –
Spn88Eb (Serpin 88Eb) | DRSC16093 | -0.1 | -0.1 | –

Quoted from above (13 entries):
Gene | dsRNA | z-score, replicate 1 | z-score, replicate 2 | z-score, replicate 3
CG3328 | DRSC04357 | -0.2 | -0.5 | –
CG17770 + Acam | DRSC14110 | -0.3 | -0.8 | –
CG17770 + Acam | DRSC15264 | -0.3 | -0.4 | –
CG10237 | DRSC02029 | -0.2 | -0.1 | –
Cyp313a4 (Cytochrome P450 313a4) | DRSC16627 | -0.3 | -0.7 | –
CG14120 | DRSC10124 | -0.2 | 0 | –
CG13230 | DRSC06350 | 0.1 | -0.1 | –
Gr94a (Gustatory receptor 94a) | DRSC13597 | 0.4 | 0.3 | –
CG14331 | DRSC14810 | -0.2 | 1.3 | –
Blm + CG14721 | DRSC14943 | -0.1 | -0.1 | –
CG3701 (retired record) | DRSC04408 | -0.4 | 0 | –
CG3701 (retired record) | DRSC04409 | -0.1 | 0.1 | –
hep (hemipterous) | DRSC19839 | -0.3 | -0.5 | –

The list goes on:
Gene | dsRNA | z-score, replicate 1 | z-score, replicate 2 | z-score, replicate 3
mmy (mummy) | DRSC02002 | -0.3 | -0.2 | –
Dolk (Dolichol kinase) | DRSC07143 | -0.2 | -0.3 | –
Drl-2 (Derailed 2) | DRSC05393 | -0.3 | -0.3 | –
Drl-2 (Derailed 2) | DRSC06155 | -0.4 | 0 | –
Drl-2 (Derailed 2) | DRSC06858 | -0.4 | -0.1 | –
CG14958 | DRSC08417 | 0.4 | 0.7 | –
Lipt1 (Lipoyltransferase 1) | DRSC05600 | -0.3 | -0.4 | –
Lipt1 (Lipoyltransferase 1) | DRSC07183 | -0.1 | -0.1 | –
CG3557 | DRSC00614 | -0.4 | -0.3 | –
Gprk2 (G protein-coupled receptor kinase 2) | DRSC16682 | -0.1 | -0.5 | –
eIF1 (eukaryotic translation initiation factor 1) | DRSC08520 | -0.2 | -0.7 | –
zda (zonda) | DRSC06936 | 2.8 | 6.1 | –
CG9698 | DRSC16539 | -0.2 | 0 | –
CG14414 | DRSC19599 | -0.4 | -0.8 | –
Zip102B (Zinc/iron regulated transporter-related protein 102B) | DRSC17155 | -0.3 | -0.4 | –
Pih1D1 (PIH1 domain containing 1) | DRSC02897 | -0.4 | -0.6 | –
Ptr (Patched-related) | DRSC04852 | -0.4 | -0.4 | –
CG42272 | DRSC08766 | -0.4 | -0.1 | –
mael (maelstrom) | DRSC11894 | -0.3 | -0.2 | –
Tpr2 (Tetratricopeptide repeat protein 2) | DRSC03461 | 0 | -0.3 | –
cola + swif | DRSC06826 | -0.3 | -0.5 | –
CG13148 | DRSC06275 | -0.1 | -0.1 | –
CG15047 | DRSC19623 | 0.2 | -0.6 | 0.9
tipE (temperature-induced paralytic E) | DRSC08738 | -0.4 | -0.5 | –
CG7182 | DRSC10780 | -0.2 | 0.1 | –
Cox17 (Cytochrome c oxidase copper chaperone COX17) | DRSC20145 | 1.2 | 1 | –
CG10949 | DRSC02112 | 0 | -0.2 | –
Orc1 (Origin recognition complex subunit 1) | DRSC07496 | 0.6 | 0.5 | –
AOX2 (Aldehyde oxidase 2) | DRSC15338 | -0.3 | -0.1 | –
Acbp6 (Acyl-CoA binding protein 6) | DRSC10217 | -0.2 | 0 | –
yin | DRSC18854 | -0.3 | -0.4 | –
CG8675 | DRSC20117 | -0.2 | -0.3 | –
CG1946 | DRSC06804 | -0.4 | -0.3 | –
CG32221 | DRSC09638 | -0.3 | -1 | –
Porin2 | DRSC02584 | -0.3 | 0.1 | –
Sardh (Sarcosine dehydrogenase) | DRSC06981 | -0.2 | -0.8 | –
TTLL3A (Tubulin tyrosine ligase-like 3A) | DRSC02143 | -0.2 | 0.2 | –
sigmar (salivary glands marred) | DRSC04449 | -0.2 | 0 | –
CG12860 | DRSC06200 | -0.3 | -0.5 | –
Dop2R (Dopamine 2-like receptor) | DRSC20683 | -0.1 | 0 | –
Dop2R (Dopamine 2-like receptor) | DRSC20686 | -0.1 | 0.3 | –
